Data as given in PubChem BioAssay AID1224828 (NIAID, 2016)

- Assay: 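Find genes required for NF-kappaB p65 moving into the nucleus after LPS in mouse macrophages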 (primary screen)
- Cell system: mouse RAW264.7 G9 macrophage reporter cells (GFP-p65, Tnf promoter-mCherry)
- Knock-down reagent: siRNA pool against mouse genes, 100 nM
- Time to read-out: 2 days siRNA transfection, then 40 min LPS before fixation
- Conditions: LPS (Salmonella minnesota R595) at 10 ng/ml
- Detection: 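Microscopy ratio of nuclear to perinuclear-ring GFP-p65 signal, scaled to the plate median; gene score is the average of two replicate robust z-scores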
- Direction: p65 translocation robust z-score: higher = more nuclear NF-kappaB p65 after LPS than the plate median; nuclear/cytoplasmic p65 ratio: higher = more nuclear NF-kappaB p65
- Call rule: 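Active if robust z is above 3.3 (negative regulators) or below -1.56, the Tlr4 control median (positive regulators); activity score 50 or more; control wells not called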
- Meaning of the calls: active = hit (p65 shift raised or lowered); inactive = no clear change
In all, the deposit lists about 17,000 reagents; this is a random part of them. Over the whole deposit, 762 (4.5%) are marked active. 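Active calls include both raised and lowered p65 entry, mostly lowered; wells with fewer than 50 cells lack a z-score.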 Raw values vary from plate to plate and are shown uncorrected. The numbers tell different reagents against one gene apart. Some reagents were tested in more than one well and are listed for each. Reagent sequences are not shown.

| gene symbol | reagent no. | p65 translocation robust z-score | nuclear/cytoplasmic p65 ratio, rep 1 | nuclear/cytoplasmic p65 ratio, rep 2 | low cell count flag | activity call |
| --- | --- | --- | --- | --- | --- | --- |
| Rpl6 | 1 | – | 1.71 | 1.2 | fewer than 50 cells per well; well left out of scoring | inactive |
| Fpr3 | 1 | 0.19 | 1.52 | 1.62 | enough cells to score | inactive |
| Fpr3 | 2 | 1.97 | 1.9 | 1.75 | enough cells to score | inactive |
| Exosc8 | 1 | – | 1.29 | 1.36 | fewer than 50 cells per well; well left out of scoring | inactive |
| Or5k14 | 1 | 0.18 | 1.62 | 1.46 | enough cells to score | inactive |
| Or5k14 | 2 | -1.47 | 1.38 | 1.3 | enough cells to score | inactive |
| Dynlt1b | 1 | 0.61 | 1.67 | 1.54 | enough cells to score | inactive |
| Kctd8 | 1 | 2.7 | 1.88 | 1.84 | enough cells to score | inactive |
| Npas3 | 1 | 0.47 | 1.79 | 1.59 | enough cells to score | inactive |
| Sun5 | 1 | – | 0 | 1.17 | fewer than 50 cells per well; well left out of scoring | inactive |
| Mmaa | 1 | -0.68 | 1.39 | 1.22 | enough cells to score | inactive |
| Stub1 | 1 | – | 1.69 | 1.47 | fewer than 50 cells per well; well left out of scoring | inactive |
| Rassf2 | 1 | 0.07 | 1.54 | 1.34 | enough cells to score | inactive |
| Ppp3r2 | 1 | 0.46 | 1.61 | 1.42 | enough cells to score | inactive |
| Zfp655 | 1 | -1.24 | 1.19 | 1.34 | enough cells to score | inactive |
| Cyb561 | 1 | 0.5 | 1.67 | 1.84 | enough cells to score | inactive |
| Tas2r124 | 1 | 2.37 | 1.74 | 1.39 | enough cells to score | inactive |
| Ang | 1 | -0.31 | 1.6 | 1.55 | enough cells to score | inactive |
| Or2y1f | 1 | -1.23 | 1.48 | 1.22 | enough cells to score | inactive |
| Irs3 | 1 | -0.03 | 1.6 | 1.38 | enough cells to score | inactive |
| Slc35f1 | 1 | – | 1.28 | 0.951 | fewer than 50 cells per well; well left out of scoring | inactive |
| Slc4a2 | 1 | – | 0 | 1.13 | fewer than 50 cells per well; well left out of scoring | inactive |
| Litaf | 1 | 0.7 | 1.78 | 1.69 | enough cells to score | inactive |
| Npr1 | 1 | 0.16 | 1.77 | 1.35 | enough cells to score | inactive |
| Npr1 | 1 | 0.82 | 1.64 | 1.69 | enough cells to score | inactive |
| Tmem14a | 1 | 1.37 | 1.44 | 1.75 | enough cells to score | inactive |
| Or4c10 | 1 | – | 1.19 | 1.18 | fewer than 50 cells per well; well left out of scoring | inactive |
| Zup1 | 1 | -0.4 | 1.39 | 1.37 | enough cells to score | inactive |
| Jkamp | 1 | – | 1.3 | 1.32 | fewer than 50 cells per well; well left out of scoring | inactive |
| Grik3 | 1 | -0.64 | 1.38 | 1.26 | enough cells to score | inactive |
| Magea9-ps | 1 | -0.7 | 1.58 | 1.46 | enough cells to score | inactive |
| Wls | 1 | -0.7 | 1.25 | 1.39 | enough cells to score | inactive |
| Zfp687 | 1 | – | 1.22 | 1.5 | fewer than 50 cells per well; well left out of scoring | inactive |
| Paxip1 | 1 | 0.4 | 1.54 | 1.43 | enough cells to score | inactive |
| Gtf2f1 | 1 | 0.82 | 1.72 | 1.75 | enough cells to score | inactive |
| Il4 | 1 | -0.74 | 1.33 | 1.32 | enough cells to score | inactive |
| Ranbp10 | 1 | 2.76 | 1.53 | 1.65 | enough cells to score | inactive |
| Tnfrsf9 | 1 | -0.36 | 1.48 | 1.46 | enough cells to score | inactive |
| Dmrtc1a | 1 | 1.07 | 1.41 | 1.38 | enough cells to score | inactive |
| Dcaf10 | 1 | 0.96 | 1.55 | 1.61 | enough cells to score | inactive |

Looked up above.
Paxip1, nuclear/cytoplasmic p65 ratio, rep 1: 1.54
Under “nuclear/cytoplasmic p65 ratio, rep 2”, Or5k14 #2 shows 1.3
